Z-score data for 67 sequences are collected here from PubChem BioAssay AID1347423 (Functional Genomics Laboratory (NCATS/FGL), 2020).

The whole screen tested about 52,000 sequences, of which about 210 (0.4%) were called active.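 Rule for the calls: active = gene whose silencing raises cell survival under the drug, median off-target-corrected z-score across its silencing RNAs 2 or more; inactive = the rest.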 This is one part of the list.

The assay can be described thus: Resistance to Poly (ADP-Ribose) Polymerase inhibitor: Gene Identification via Genome-wide siRNA Screen. Conditions: mouse BRCA2 R2336H ES cells, olaparib, CellTiter-Glo viability; hits give high values. In outline:
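Mouse BRCA2 R2336H ES cells were reverse-transfected with siRNA (20 nM final), treated at 48 h with 500 nM olaparib, and read by CellTiter-Glo after 72 h. Scores: MAD-based z per siRNA, median per gene, seed off-target correction.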
On the technique in general: Cellular ATP, detected with luciferase, serves as a proxy for viable cell number.
On to GGUAGAGCGCAAGAAGGCATT against C78541, for which the z-score was inactive: -1.89.

As for GGCUGGUGUAAAAGACACGTT against BC047219, the z-score is inactive: 1.58.

Turning to GGUGUGCUGUGUAAGGGAGTT against Inpp5b, the z-score is inactive: 1.39.

For the sequence GGAGUUACUGACUAAGAACTT against Prlpe, the z-score is inactive: 0.319.

Consider GGCUAAAUAUGUGAUUAGUTT against Maob, for which the z-score was inactive: 1.67.

For the sequence CGGGAUCUAUCCACUGAUGTT against BC011468, the z-score was inactive: 0.00812.

Turning to GGCAACUGUUGGAUUGAUUTT against Catnb, the z-score was inactive: 0.86.

CCUUGUAAGUGAGAUCCGATT against Olfr118: the z-score is inactive: -0.695.

For CCAAAUGAAAUUAGUCCUCTT against Eif5, the z-score was inactive: -1.09.

As to GCUAACUGCUACUAAAAUATT against Ndph, the z-score is inactive: -2.38.

Take GGACCCAACCUCAAUGAAATT against Arfip2: the z-score was inactive: 1.52.

With GGAGUUUUGAAUAACAGCUTT against Ntn3, the z-score was inactive: 0.929.

For the sequence GGAUCUAGAAAUGGUUAAGTT against Evpl, the z-score is inactive: -0.722.

In the case of GGACUUAUGGCAUUAGAAUTT against Nup88, the z-score was inactive: -2.73.

“GGUGAUUGAAGUUUGUGAGTT against D230025D16Rik”: the z-score is inactive: 0.387.

With GGUAUGCACUCACACCAGATT against Mus81, the z-score was inactive: -1.78.

As to GGACCCUGAAGGAGCUGAATT against Per2, the z-score is inactive: -1.32.

On to “GGAACCAAUCGGGAUUUUGTT against B330016D10Rik”, for which the z-score was inactive: 0.0402.

With GUCUCAAGUGGACUGUGAGTT against Ngfa, the z-score is inactive: -0.74.

Turning to GGUCUUAGAUAUUUUAGGCTT against Pbef1, the z-score is inactive: 0.398.

Consider GGACAUGACAUUUUUACGCTT against Cyp4f16, for which the z-score was inactive: 0.822.

Consider GGAGGAGGAAAAGACUUUUTT against Pdzk2, for which the z-score is inactive: -0.907.

GGCUGAGUUAUUUGUGACATT against Syt13: the z-score is inactive: 0.13.

Consider GGGCUUUAAUUCACAGAGCTT against Ticam2, for which the z-score is inactive: -0.653.

Regarding GGUGGACAAGGAGAGGACUTT against H2-Q1, the z-score was inactive: -0.31.

Consider GGGAAUCUGGAAGACACCATT against Hap1, for which the z-score was inactive: 0.0223.

Take “CGACUUUAAUUCCAAUCCUTT against 1810014L12Rik”: the z-score was inactive: 0.192.

Turning to GGUUACCUGAGGUCAGUAGTT against Ifi1, the z-score was inactive: -2.31.

For the sequence GCCUAGACAAUGGUGACCUTT against Nsfl1c, the z-score is inactive: -0.792.

Consider GGAUCAUUUCUGGUGAUAATT against Map3k8, for which the z-score was inactive: -0.149.

With GCAAUAUGUAUGUUAGUCUTT against Olfr1241, the z-score is inactive: 0.434.

Consider GCAACGUGUAUUUAAAGACTT against Nrd1, for which the z-score is inactive: 0.769.

Turning to GGUCUUUCAAUAAAGAGAATT against Supt5h, the z-score is inactive: -0.0124.

Take GGGUGAGCGACAGAUGUCATT against Plcz1: the z-score was inactive: -2.37.

On to GCUAGUCUUAUGGACCAGATT against Eaf2, for which the z-score is inactive: -0.544.

On to GGGAAUCAUUAACAGCUUGTT against Hectd2, for which the z-score was inactive: -0.85.

For the sequence GGUCAAAGUAGGUAAAGAATT against Snx2, the z-score was inactive: -0.783.

As for CCAGAGAGAUACCUGAUCUTT against Tas2r113, the z-score is inactive: -2.7.

With GGGACAUGAUUUUGAACUUTT against Pfkfb2, the z-score is inactive: 0.845.

As for “CGAUCAUUAAGCAAGUGAUTT against D930038M13Rik”, the z-score is inactive: 0.00691.

On to “GGAACCUAGAAGUUUUCUATT against 1700081D17Rik”, for which the z-score is inactive: 0.79.

Turning to GCACAUUCGAUAUGCAACATT against Cops3, the z-score was inactive: -1.78.

For the sequence GGUGAGAAGACCAUUGAUUTT against Insr, the z-score was inactive: 1.23.

Turning to “GGAAGUGUUCCGUUUUGCUTT against 6530402N02Rik”, the z-score was inactive: 1.89.

Regarding “GCUGUAAACCGAAUCAAAGTT against 2810403A07Rik”, the z-score was inactive: -0.388.

On to GGUGGAAGCACAGAGUUGCTT against Prdm15, for which the z-score is inactive: 2.19.

On to GGCAGUGCAAGCCUUCAUGTT against Emp1, for which the z-score is inactive: -0.0058.

With “GGAUGGAGAGAUAAGAAAATT against 4933403M22Rik”, the z-score is inactive: -0.715.

In the case of GGAACCAUGGACCUUAAUUTT against Rbm4, the z-score is inactive: 0.0394.

For “GCGCGAUCACAUUCUUUAGTT against 4921522P10Rik”, the z-score is inactive: 1.14.

For GGAACUUAACUAUUGCACUTT against Hs3st1, the z-score was inactive: -0.0559.

With CCACAUUCCUCAUUCUGUATT against Vars2l, the z-score was inactive: -0.0608.

As for CCAAGGUAUGAAGAUAUUUTT against Rfpl4, the z-score was inactive: 0.167.

As for GGCUUCUUAUUGAUGUUGGTT against Asb13, the z-score is inactive: 0.989.

On to “GGAAGAUCCGCUUCAACGUTT against 2310007B03Rik”, for which the z-score was inactive: 0.608.

As to GGACUCUUGGAACUAUUCUTT against Kcnma3, the z-score is inactive: 0.56.

GGCUAAGAUAAGAAAUGCUTT against AI839562: the z-score was inactive: 3.06.

For GGACAAAGAAUCCAAAAUATT against Etv6, the z-score is inactive: -0.976.

As to GCCUCAUUAGUUAAUAUUCTT against Ppp1r8, the z-score was inactive: 1.13.

GGUACUGUCCAAGAAGCCGTT against Ankmy2: the z-score is inactive: 1.84.

As for CCUAAUGUUUAGAUCCAUATT against Gcm2, the z-score was inactive: 0.24.

As to CCACGCAACUAUAAGCUGCTT against B3gat1, the z-score is inactive: 1.71.

On to “GGAGCUGACCUAUCUCAAGTT against 4631426H08Rik”, for which the z-score is inactive: 1.11.

Consider “GGUCAUGCAAGACAAGAUCTT against E430036I04Rik”, for which the z-score is inactive: -0.271.

As for GCACCGACCACCAAAUCUATT against Muc10, the z-score is inactive: -1.36.

Consider GGCUGCUACUUCAGACAGCTT against Pou6f2, for which the z-score was inactive: -0.51.

“CGCAUCUCUAUCCACACUUTT against 1700010H15Rik”: the z-score is inactive: 0.262.
